Assay [1] addresses T1, ROS1-nLUC (Arabidopsis thaliana) (UniProt Q9SJQ6).
T1 sequence: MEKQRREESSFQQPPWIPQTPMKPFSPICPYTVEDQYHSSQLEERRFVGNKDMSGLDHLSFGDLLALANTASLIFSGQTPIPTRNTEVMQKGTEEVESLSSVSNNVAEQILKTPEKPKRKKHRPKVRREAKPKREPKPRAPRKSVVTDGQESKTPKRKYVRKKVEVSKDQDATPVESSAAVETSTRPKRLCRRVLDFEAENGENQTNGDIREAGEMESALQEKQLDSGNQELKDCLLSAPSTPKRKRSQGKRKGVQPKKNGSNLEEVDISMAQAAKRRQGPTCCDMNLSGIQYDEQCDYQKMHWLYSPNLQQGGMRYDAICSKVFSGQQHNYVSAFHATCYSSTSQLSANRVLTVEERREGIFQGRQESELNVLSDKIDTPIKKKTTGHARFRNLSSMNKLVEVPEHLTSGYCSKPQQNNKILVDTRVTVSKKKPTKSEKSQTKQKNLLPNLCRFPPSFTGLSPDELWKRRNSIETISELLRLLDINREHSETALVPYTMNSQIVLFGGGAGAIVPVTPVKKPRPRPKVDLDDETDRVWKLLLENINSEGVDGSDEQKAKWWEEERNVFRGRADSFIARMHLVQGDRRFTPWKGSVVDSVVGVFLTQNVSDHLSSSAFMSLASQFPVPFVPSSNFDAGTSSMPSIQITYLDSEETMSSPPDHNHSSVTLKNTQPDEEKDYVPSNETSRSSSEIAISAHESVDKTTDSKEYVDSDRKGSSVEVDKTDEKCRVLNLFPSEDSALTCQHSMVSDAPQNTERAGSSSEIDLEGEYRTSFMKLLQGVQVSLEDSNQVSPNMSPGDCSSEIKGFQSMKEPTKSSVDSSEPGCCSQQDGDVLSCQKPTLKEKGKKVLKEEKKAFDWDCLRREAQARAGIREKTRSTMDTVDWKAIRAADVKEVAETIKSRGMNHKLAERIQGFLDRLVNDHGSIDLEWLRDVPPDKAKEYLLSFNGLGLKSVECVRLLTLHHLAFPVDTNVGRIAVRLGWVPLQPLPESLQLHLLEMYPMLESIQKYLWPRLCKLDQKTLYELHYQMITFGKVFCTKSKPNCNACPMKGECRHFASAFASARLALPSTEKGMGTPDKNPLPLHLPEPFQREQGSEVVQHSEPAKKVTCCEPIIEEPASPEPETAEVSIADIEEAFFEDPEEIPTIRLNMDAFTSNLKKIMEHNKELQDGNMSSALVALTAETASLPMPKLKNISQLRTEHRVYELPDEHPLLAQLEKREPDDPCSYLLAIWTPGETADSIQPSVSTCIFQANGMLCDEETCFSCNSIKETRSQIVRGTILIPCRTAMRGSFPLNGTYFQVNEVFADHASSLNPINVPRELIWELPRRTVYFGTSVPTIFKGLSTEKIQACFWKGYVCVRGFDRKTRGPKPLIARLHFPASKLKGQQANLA
As to the kind of experiment: split reporter.

Sequences of proteins named here, by UniProt entry; tags and fusion partners are left off.
UniProt P55852: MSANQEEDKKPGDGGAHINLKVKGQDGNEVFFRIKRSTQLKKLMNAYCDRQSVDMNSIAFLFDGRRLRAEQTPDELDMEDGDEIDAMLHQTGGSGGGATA

Assay [2] concerns the target T2, ROS1a-nLUC (1-509 aa) (Arabidopsis thaliana) (UniProt Q9SJQ6).
T2 sequence: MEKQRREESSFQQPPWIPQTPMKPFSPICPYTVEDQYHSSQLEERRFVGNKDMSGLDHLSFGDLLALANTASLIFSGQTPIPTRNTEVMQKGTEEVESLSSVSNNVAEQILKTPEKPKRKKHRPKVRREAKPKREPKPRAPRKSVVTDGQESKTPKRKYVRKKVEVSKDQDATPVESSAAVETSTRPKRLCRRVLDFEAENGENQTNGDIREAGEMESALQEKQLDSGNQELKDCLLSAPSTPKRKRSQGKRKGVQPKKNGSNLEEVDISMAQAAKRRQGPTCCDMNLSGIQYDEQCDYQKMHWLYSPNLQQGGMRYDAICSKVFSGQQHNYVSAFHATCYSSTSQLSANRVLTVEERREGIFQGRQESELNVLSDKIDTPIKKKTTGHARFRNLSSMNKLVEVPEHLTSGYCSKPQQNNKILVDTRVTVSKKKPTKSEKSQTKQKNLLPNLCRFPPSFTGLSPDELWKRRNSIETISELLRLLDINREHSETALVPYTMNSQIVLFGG
As to the kind of experiment: split reporter.

Assay [3] deals with T3, ROS1b-nLUC (510-1393 aa) (Arabidopsis thaliana) (UniProt Q9SJQ6).
T3 sequence: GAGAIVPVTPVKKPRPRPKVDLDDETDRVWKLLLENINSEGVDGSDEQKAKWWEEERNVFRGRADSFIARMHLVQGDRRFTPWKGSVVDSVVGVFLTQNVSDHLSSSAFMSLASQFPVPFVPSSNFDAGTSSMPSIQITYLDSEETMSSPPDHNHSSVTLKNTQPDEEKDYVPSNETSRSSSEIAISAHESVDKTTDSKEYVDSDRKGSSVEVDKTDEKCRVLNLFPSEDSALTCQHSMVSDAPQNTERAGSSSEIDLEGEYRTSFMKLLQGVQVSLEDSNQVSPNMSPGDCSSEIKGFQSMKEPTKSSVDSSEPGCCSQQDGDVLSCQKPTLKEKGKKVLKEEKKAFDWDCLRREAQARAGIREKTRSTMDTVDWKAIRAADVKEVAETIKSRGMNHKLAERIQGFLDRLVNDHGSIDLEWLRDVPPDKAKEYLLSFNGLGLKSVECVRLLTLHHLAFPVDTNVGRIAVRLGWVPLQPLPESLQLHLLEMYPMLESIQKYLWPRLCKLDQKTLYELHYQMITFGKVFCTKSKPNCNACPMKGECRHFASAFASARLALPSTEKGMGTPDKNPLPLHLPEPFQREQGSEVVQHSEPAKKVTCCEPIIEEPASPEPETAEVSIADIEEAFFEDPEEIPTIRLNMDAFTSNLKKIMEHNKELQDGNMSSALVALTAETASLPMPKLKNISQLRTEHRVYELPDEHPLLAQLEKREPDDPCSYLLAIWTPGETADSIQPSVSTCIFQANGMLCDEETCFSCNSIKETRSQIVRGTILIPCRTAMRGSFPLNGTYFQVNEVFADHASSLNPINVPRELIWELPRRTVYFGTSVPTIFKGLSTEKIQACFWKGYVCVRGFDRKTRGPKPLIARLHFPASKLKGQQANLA
As to the kind of experiment: split reporter.

The target in assay [4] is T4, ROS1-BD (REPRESSOR OF … 1 fused to the Gal4 binding domain) (Arabidopsis thaliana) (UniProt Q9SJQ6).
T4 sequence: T1 sequence
As to the kind of experiment: two-hybrid.

Assay [5] deals with T1, ROS1-nLUC (Arabidopsis thaliana). As to the kind of experiment: split reporter. The source holds these as a separate data set.
Assay [6] addresses T5, ROS1-Flag (Arabidopsis thaliana) (UniProt Q9SJQ6).
T5 sequence: T1 sequence
As to the kind of experiment: co-IP.

In assay [7] the target is T6, ROS1-nYFP (Arabidopsis thaliana) (UniProt Q9SJQ6).
T6 sequence: T1 sequence
As to the kind of experiment: split reporter.

Read-outs that look alike come from different tables or passages of the source. No constants are given. Whether binding was seen depends on the method and setting. For some of these results: In cells and extracts the contact can be indirect. Some binding calls cover weakened binding; strength is not graded here. Tags and fused reporters may be left off the sequences shown.

Turning to cLUC-SUMO1 (from UniProt P55852 1-100), the figures for the binding result in assay [1], in assay [2] and in assay [3] were “binds”, “no binding” and “binds”, respectively.

B1: SIZ1-AD (SUMO E3 ligase SIZ1 fused to the Gal4 activation domain) (protein, UniProt Q680Q4 1-884)
chain: MDLEANCKEKLSYFRIKELKDVLTQLGLSKQGKKQELVDRILTLLSDEQAARLLSKKNTVAKEAVAKLVDDTYRKMQVSGASDLASKGQVSSDTSNLKVKGEPEDPFQPEIKVRCVCGNSLETDSMIQCEDPRCHVWQHVGCVILPDKPMDGNPPLPESFYCEICRLTRADPFWVTVAHPLSPVRLTATTIPNDGASTMQSVERTFQITRADKDLLAKPEYDVQAWCMLLNDKVLFRMQWPQYADLQVNGVPVRAINRPGGQLLGVNGRDDGPIITSCIRDGVNRISLSGGDVRIFCFGVRLVKRRTLQQVLNLIPEEGKGETFEDALARVRRCIGGGGGDDNADSDSDIEVVADFFGVNLRCPMSGSRIKVAGRFLPCVHMGCFDLDVFVELNQRSRKWQCPICLKNYSVEHVIVDPYFNRITSKMKHCDEEVTEIEVKPDGSWRVKFKRESERRELGELSQWHAPDGSLCPSAVDIKRKMEMLPVKQEGYSDGPAPLKLGIRKNRNGIWEVSKPNTNGLSSSNRQEKVGYQEKNIIPMSSSATGSGRDGDDASVNQDAIGTFDFVANGMELDSISMNVDSGYNFPDRNQSGEGGNNEVIVLSDSDDENDLVITPGPAYSGCQTDGGLTFPLNPPGIINSYNEDPHSIAGGSSGLGLFNDDDEFDTPLWSFPSETPEAPGFQLFRSDADVSGGLVGLHHHSPLNCSPEINGGYTMAPETSMASVPVVPGSTGRSEANDGLVDNPLAFGRDDPSLQIFLPTKPDASAQSGFKNQADMSNGLRSEDWISLRLGDSASGNHGDPATTNGINSSHQMSTREGSMDTTTETASLLLGMNDSRQDKAKKQRSDNPFSFPRQKRSNNEQDHQTRHRSLNKICIILCAGKN
As for B1, the binding result in assay [4] is given as “binds”.

B2: cLUC-SIZ1 (protein, UniProt Q680Q4 1-884)
chain: B1 chain
Consider B2, for which, in assay [5], the binding result is “binds”.

B3: HA-SIZ1 (protein, UniProt Q680Q4 1-884)
chain: B1 chain
With B3, in assay [6], the binding entry is listed as “binds”.

B4: SIZ1-cYFP (protein, UniProt Q680Q4 1-884)
chain: B1 chain
Take B4: in assay [7], the binding result was “binds”.

Source of the values: doi:10.1101/2020.03.05.978999.
